The list shows a part of the results.
Legend:
Test in all cases: log2 fold change, soluble protein after heating vs DMSO (PISA); higher = thermal stabilisation; K562 lysate, 10 uM; active = over 0.2 and 3.5 SD of the protein, either way, in both replicates (recomputed)
erlotinib = compound: C#Cc1cccc(Nc2ncnc3cc(OCCOC)c(OCCOC)cc23)c1 [erlotinib]
Summary of the method: (§1)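 A 30 min treatment with 10 μM compound was applied to crude K562 extract at 1 mg/mL protein in PBS pH 7.4 with 1 mM MgCl2. Heating for 3 min spanned 48°C-58°C, after which aliquots were pooled, adjusted to 0.5% NP-40 at 4°C and spun at 21,000xg for 90 min. TMTpro 16plex LC-MS/MS of the supernatant, with channel sums equalised, gave values recorded as log-two fold change in thermal stability against solvent controls, from duplicates.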

The chains behind the UniProt entries cited, without tags or fusion partners. Where a name states a change or a piece, a line headed by the entry shows the natural chain unless it says otherwise.
UniProt Q9UMR2: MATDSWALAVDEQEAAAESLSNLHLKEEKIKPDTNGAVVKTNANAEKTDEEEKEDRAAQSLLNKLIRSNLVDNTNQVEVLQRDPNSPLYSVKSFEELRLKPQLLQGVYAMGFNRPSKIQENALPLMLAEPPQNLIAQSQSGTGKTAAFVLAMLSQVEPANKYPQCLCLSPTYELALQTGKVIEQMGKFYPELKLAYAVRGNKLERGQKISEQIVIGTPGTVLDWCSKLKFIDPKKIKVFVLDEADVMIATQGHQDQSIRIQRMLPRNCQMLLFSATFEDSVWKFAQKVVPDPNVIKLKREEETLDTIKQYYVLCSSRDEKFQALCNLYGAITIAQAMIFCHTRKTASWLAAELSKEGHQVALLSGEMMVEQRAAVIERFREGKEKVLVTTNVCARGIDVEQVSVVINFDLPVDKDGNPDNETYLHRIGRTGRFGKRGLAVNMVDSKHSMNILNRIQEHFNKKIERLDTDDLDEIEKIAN
UniProt Q9Y315: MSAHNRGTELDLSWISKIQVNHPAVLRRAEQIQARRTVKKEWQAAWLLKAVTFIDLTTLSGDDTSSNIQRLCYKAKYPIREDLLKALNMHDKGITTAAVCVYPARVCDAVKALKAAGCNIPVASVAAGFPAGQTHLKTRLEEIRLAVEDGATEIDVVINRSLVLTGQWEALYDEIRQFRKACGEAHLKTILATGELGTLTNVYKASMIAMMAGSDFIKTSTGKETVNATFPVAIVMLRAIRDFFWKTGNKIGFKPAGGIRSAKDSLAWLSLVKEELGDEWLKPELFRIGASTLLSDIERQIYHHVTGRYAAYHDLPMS
UniProt Q9NXF7, whole entry, looked up: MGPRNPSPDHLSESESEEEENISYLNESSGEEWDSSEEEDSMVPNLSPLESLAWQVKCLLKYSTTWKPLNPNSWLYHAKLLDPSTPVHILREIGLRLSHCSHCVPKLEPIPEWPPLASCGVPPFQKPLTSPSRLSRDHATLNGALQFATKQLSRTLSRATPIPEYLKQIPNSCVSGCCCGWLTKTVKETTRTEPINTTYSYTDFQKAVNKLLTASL
UniProt Q7L014: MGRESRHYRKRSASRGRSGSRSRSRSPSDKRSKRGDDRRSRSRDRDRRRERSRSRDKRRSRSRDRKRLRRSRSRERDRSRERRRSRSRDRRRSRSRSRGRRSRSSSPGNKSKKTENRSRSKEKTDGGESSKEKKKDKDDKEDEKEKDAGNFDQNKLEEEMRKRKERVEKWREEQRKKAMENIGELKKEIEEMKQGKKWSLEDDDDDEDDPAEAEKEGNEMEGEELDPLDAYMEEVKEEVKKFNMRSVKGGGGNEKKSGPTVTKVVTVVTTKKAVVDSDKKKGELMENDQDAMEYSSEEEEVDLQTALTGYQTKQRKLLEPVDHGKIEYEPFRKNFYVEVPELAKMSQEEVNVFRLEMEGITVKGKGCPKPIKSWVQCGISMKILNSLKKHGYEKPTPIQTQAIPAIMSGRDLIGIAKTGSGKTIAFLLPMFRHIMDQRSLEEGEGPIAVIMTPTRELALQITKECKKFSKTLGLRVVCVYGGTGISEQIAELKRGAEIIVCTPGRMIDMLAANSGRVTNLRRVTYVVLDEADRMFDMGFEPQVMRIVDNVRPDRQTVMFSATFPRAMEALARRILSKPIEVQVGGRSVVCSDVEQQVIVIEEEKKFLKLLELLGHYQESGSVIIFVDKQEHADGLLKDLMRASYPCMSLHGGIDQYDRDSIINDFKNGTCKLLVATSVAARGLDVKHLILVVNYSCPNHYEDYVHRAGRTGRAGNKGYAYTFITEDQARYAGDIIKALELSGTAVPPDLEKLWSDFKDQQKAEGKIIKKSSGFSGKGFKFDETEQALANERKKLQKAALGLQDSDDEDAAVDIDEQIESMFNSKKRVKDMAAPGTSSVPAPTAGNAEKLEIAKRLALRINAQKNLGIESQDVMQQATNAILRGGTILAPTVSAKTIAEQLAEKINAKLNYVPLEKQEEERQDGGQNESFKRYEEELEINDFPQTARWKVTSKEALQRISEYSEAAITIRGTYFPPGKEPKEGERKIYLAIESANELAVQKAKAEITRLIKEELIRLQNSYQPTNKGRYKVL
UniProt O00273: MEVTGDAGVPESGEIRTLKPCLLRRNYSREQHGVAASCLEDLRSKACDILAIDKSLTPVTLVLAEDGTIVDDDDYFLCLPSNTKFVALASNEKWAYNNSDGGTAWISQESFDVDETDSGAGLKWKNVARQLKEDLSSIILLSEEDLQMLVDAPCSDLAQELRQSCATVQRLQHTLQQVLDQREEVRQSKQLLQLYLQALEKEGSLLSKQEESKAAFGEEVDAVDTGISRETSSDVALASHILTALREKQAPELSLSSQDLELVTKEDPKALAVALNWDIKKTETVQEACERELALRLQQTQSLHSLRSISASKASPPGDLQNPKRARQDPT
UniProt Q9UJV9: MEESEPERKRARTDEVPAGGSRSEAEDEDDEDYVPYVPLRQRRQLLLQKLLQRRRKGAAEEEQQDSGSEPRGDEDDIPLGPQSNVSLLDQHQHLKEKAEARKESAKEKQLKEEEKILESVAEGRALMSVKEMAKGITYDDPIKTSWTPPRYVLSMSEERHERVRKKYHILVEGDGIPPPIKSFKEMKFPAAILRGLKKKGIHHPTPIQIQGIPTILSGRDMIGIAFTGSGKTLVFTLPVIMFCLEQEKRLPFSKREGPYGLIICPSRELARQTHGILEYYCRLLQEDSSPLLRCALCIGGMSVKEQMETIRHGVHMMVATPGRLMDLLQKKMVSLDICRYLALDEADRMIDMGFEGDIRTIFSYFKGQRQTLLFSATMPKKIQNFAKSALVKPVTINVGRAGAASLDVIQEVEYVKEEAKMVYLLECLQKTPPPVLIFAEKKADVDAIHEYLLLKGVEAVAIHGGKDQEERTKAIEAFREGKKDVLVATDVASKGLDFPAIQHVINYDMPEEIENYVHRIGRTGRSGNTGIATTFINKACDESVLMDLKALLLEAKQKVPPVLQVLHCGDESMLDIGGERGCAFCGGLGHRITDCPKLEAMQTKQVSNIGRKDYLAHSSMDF
UniProt Q66K64, whole entry, looked up: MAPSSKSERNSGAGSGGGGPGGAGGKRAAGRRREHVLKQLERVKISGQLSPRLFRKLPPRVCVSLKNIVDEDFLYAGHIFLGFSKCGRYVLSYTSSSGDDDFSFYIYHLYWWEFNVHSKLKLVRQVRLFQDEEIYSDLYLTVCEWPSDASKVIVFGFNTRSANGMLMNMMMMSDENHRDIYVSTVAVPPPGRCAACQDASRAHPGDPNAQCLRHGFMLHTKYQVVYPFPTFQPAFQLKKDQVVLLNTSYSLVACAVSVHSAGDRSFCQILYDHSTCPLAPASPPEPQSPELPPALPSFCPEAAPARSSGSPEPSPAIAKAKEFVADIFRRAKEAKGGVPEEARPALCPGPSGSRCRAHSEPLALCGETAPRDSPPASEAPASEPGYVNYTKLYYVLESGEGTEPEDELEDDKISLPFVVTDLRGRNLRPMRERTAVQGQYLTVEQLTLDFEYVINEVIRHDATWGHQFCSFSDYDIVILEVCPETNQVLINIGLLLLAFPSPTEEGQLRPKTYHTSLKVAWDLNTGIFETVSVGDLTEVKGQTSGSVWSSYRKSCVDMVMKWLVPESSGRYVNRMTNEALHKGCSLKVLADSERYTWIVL
UniProt Q9H0S4: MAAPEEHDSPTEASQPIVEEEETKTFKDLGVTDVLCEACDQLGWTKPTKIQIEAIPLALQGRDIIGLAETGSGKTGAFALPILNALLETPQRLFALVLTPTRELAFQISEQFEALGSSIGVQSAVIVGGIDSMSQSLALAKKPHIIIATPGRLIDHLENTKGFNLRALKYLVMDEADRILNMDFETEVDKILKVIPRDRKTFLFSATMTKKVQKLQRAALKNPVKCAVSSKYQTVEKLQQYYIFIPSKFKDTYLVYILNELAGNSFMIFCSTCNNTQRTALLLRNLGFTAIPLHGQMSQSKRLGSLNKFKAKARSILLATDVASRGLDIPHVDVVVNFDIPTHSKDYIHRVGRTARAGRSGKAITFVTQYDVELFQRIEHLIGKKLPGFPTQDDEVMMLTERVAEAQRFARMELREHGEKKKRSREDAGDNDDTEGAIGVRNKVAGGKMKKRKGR
UniProt P11182, whole entry, looked up: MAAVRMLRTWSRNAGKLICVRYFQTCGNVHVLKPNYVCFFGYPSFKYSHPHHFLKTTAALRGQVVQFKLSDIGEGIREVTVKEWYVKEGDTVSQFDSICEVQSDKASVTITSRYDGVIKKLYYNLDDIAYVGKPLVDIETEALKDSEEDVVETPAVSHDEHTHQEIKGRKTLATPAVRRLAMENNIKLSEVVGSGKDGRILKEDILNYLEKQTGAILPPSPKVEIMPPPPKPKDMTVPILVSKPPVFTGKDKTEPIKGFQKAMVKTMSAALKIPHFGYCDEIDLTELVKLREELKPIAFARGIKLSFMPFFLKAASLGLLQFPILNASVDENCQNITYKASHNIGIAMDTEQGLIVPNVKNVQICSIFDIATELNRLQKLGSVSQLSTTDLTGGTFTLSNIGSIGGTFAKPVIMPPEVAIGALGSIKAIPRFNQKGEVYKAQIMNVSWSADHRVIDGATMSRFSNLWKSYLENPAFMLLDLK
UniProt Q9NVP1: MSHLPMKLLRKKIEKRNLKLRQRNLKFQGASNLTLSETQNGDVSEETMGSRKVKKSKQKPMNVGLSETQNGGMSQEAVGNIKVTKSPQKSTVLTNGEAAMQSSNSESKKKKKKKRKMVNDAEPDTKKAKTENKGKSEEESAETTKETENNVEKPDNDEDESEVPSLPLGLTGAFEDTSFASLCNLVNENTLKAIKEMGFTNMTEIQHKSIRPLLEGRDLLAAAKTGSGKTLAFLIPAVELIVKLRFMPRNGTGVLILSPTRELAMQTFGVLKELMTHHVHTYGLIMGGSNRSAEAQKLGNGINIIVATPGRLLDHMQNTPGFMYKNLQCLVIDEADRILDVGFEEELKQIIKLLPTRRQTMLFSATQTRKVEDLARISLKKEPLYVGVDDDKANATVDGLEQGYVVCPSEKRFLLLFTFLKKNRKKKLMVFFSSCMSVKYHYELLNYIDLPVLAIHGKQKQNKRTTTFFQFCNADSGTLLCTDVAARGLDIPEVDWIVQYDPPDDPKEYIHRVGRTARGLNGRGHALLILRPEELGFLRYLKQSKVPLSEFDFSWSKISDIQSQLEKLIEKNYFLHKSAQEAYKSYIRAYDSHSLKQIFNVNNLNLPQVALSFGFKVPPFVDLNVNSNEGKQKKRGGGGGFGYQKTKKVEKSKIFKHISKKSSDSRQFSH
UniProt Q6PI48: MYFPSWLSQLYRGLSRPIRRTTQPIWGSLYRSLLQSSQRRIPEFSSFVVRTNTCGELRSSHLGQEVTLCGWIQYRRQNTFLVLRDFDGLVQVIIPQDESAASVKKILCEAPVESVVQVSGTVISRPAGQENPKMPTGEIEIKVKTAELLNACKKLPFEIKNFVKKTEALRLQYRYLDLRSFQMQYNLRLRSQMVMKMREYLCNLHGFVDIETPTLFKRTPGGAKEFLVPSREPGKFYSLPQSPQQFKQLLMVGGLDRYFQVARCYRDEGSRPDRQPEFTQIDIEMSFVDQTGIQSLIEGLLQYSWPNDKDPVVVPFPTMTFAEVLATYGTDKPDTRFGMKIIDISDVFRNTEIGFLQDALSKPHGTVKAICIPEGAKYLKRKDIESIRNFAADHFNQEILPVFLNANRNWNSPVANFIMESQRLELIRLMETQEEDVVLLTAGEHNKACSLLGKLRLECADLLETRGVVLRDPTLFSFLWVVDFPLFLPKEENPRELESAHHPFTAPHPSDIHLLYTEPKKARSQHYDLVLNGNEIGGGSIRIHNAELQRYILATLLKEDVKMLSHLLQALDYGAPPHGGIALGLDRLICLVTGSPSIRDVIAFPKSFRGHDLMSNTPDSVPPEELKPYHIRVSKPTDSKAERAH
UniProt P17661, whole entry, looked up: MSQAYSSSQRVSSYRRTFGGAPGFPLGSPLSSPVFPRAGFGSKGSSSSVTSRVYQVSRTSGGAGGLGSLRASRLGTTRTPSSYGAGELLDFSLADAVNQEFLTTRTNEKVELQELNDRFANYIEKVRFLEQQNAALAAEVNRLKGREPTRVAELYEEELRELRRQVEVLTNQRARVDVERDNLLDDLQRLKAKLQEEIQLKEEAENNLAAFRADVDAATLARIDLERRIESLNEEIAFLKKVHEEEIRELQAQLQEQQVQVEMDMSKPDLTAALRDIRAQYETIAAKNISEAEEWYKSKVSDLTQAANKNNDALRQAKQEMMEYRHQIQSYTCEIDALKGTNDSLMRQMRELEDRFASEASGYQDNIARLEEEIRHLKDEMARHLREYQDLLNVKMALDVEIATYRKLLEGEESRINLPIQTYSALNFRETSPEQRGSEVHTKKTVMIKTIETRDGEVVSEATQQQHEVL

[1] = compound: C/C(=N\NC(=O)C1=CC(=CC=C1)S(=O)(=O)N2CCOCC2)/C3=C(C=CC(=C3)Cl)O
Summary of the method: as §1

[2] = compound: C1=CC(=CC=C1C2=NC3=C(N2)C=C(C=C3)C(=O)N)OC4=CC=C(C=C4)Cl
Summary of the method: as §1

[3] = compound: C1=CC2=C(C=CC(=C2)/C=C\3/C(=O)NC(=NCC4=CC=CS4)S3)N=C1
Summary of the method: as §1

[4] = compound: C1=CC2=NC=CN=C2C=C1/C=C/3\C(=O)NC(=O)S3
Summary of the method: as §1

[5] = compound: C1=CC=C(C=C1)C2=NC(=C(N2)C3=CC=NC=C3)C4=CC(=C(C=C4)Cl)O
Summary of the method: as §1

[6] = compound: C1=CC=C2C(=C1)C3=NNC4=CC=CC(=C43)C2=O
Summary of the method: as §1

[7] = compound: C1CCN(C1)C(=O)NC2=CC=CC(=C2)NC3=NC=C(C(=N3)NCCC4=CN=CN4)Br
Summary of the method: as §1

[8] = compound: C1CN(CCC1(CC2=CC=C(C=C2)Cl)N)C3=NC=NC4=C3C=CN4
Summary of the method: as §1

IRAK-1-4 Inhibitor I = compound: C1COCCN1CCN2C3=CC=CC=C3N=C2NC(=O)C4=CC(=CC=C4)[N+](=O)[O-] [IRAK-1-4 Inhibitor I]
Summary of the method: as §1

ibrutinib = compound: C=CC(=O)N1CCC[C@@H](n2nc(-c3ccc(Oc4ccccc4)cc3)c3c(N)ncnc32)C1 [ibrutinib]
Summary of the method: as §1

[9] = compound: CC(=O)c1cnc2ccc(-c3cc(Cl)c(O)c(Cl)c3)nc2c1N[C@H]1CC[C@H](CN(C)C)CC1
Summary of the method: as §1

ralimetinib = compound: CC(C)(C)Cn1c(N)nc2ccc(-c3[nH]c(C(C)(C)C)nc3-c3ccc(F)cc3)nc21 [ralimetinib]
Summary of the method: as §1

[10] = compound: CC(C)(O)CC(=O)NCCn1ccc2ncnc(Nc3ccc(Oc4cccc(C(F)(F)F)c4)c(Cl)c3)c21
Summary of the method: as §1

[11] = compound: CC(C)C1=C2N=C(C=C(N2N=C1)NCC3=CC=CC=C3)NCCCCCCN
Summary of the method: as §1

[12] = compound: CC1=C(C(CC(=O)N1)C2=CC=C(C=C2)C(F)(F)F)C(=O)NC3=C(C=C4C(=C3)C=NN4)F
Summary of the method: as §1

[13] = compound: CC1=C(C2=C(C=C1)C(=O)C3=CC=CC=C3N2CCCN)C
Summary of the method: as §1

[14] = compound: CC1=C(C=C(C=C1)NC(=O)C2=CC(=CC=C2)C(C)(C)C#N)NC3=CC4=C(C=C3)N=CN(C4=O)C
Summary of the method: as §1

[15] = compound: CC1=C(C=C(C=C1)NC(=O)C2=CC(=CC=C2)N(C)C)NC(=O)C3=CC=C(C=C3)O
Summary of the method: as §1

[16] = compound: CC1=CC=C(C=C1)SC2=C3C=C(SC3=CN=C2)C(=O)N
Summary of the method: as §1

Measured: log2 fold change

DDX19B (UniProt Q9UMR2)
inactive: erlotinib 0.028 | [1] 0.022 | [2] 0.025 | [3] -0.004 | [4] 0.016 | [5] 0.011 | [6] -0.014 | [7] 0.014 | [8] -0.005 | IRAK-1-4 Inhibitor I 0.001 | ibrutinib -0.02 | [9] 0.002 | ralimetinib 0.018 | [10] -0.026 | [11] -0.009 | [12] -0.009 | [13] -0.02 | [14] 0.018 | [15] 0.017 | [16] 0.004

DERA (UniProt Q9Y315)
inactive: erlotinib -0.008 | [1] 0.008 | [2] 0.028 | [3] 0.014 | [4] 0.015 | [5] 0.001 | [6] 0.019 | [7] 0.013 | [8] 0.023 | IRAK-1-4 Inhibitor I 0.002 | ibrutinib -0.011 | [9] 0.008 | ralimetinib 0.008 | [10] -0.032 | [11] 0.013 | [12] -0.01 | [13] -0.037 | [14] 0.033 | [15] -0.008 | [16] -0.017

DDB2 (UniProt Q92466)
inactive: erlotinib -0.007 | [1] -0.028 | [2] 0.07 | [3] 0.052 | [4] 0.064 | [5] -0.024 | [6] 0 | [7] -0.075 | [8] -0.041 | IRAK-1-4 Inhibitor I 0.026 | ibrutinib 0.075 | [9] -0.016 | ralimetinib 0.009 | [10] -0.033 | [11] -0.007 | [12] 0.091 | [13] -0.003 | [14] 0.009 | [15] 0 | [16] 0.01

DCUN1D4 isoform 3 (UniProt Q92564)
inactive: erlotinib -0.025 | [1] -0.118 | [2] 0.068 | [3] -0.127 | [4] -0.063 | [5] -0.026 | [6] -0.053 | [7] -0.09 | [8] -0.113 | IRAK-1-4 Inhibitor I 0.005 | ibrutinib 0.064 | [9] 0.078 | ralimetinib -0.033 | [10] -0.057 | [11] 0.018 | [12] -0.009 | [13] -0.078 | [14] -0.027 | [15] 0.029 | [16] -0.059

DDX54 isoform 2 (UniProt Q8TDD1)
inactive: erlotinib -0.088 | [1] -0.36 | [2] -0.038 | [3] -0.035 | [4] -0.191 | [5] -0.001 | [6] -0.054 | [7] 0.069 | [8] 0.014 | IRAK-1-4 Inhibitor I -0.058 | ibrutinib -0.005 | [9] 0.006 | ralimetinib 0.036 | [10] 0.023 | [11] -0.001 | [12] 0.02 | [13] -0.054 | [14] -0.054 | [15] -0.006 | [16] 0.013

DDA1 (UniProt Q9BW61)
inactive: erlotinib -0.004 | [1] -0.001 | [2] 0.036 | [3] -0.03 | [4] 0.008 | [5] -0.093 | [6] 0.016 | [7] -0.017 | [8] -0.01 | IRAK-1-4 Inhibitor I 0.012 | ibrutinib 0.108 | [9] -0.003 | ralimetinib 0 | [10] 0.019 | [11] -0.072 | [12] 0.028 | [13] 0.022 | [14] 0.01 | [15] 0.018 | [16] -0.017

DCAF16 (UniProt Q9NXF7)
inactive: erlotinib -0.024 | [1] 0.051 | [2] 0.092 | [3] -0.071 | [4] 0.086 | [5] 0 | [6] -0.006 | [7] 0.041 | [8] 0.01 | IRAK-1-4 Inhibitor I -0.012 | ibrutinib -0.005 | [9] -0.03 | ralimetinib -0.021 | [10] 0.001 | [11] 0.026 | [12] -0.016 | [13] -0.016 | [14] 0.041 | [15] -0.04 | [16] -0.014

DDX46 (UniProt Q7L014)
inactive: erlotinib 0.019 | [1] -0.009 | [2] 0.019 | [3] 0.021 | [4] -0.004 | [5] 0.006 | [6] -0.05 | [7] -0.033 | [8] 0.004 | IRAK-1-4 Inhibitor I -0.022 | ibrutinib 0.002 | [9] -0.007 | ralimetinib 0.021 | [10] 0.025 | [11] 0.03 | [12] -0.017 | [13] -0.025 | [14] -0.007 | [15] 0.032 | [16] 0.005

DFFA (UniProt O00273)
inactive: erlotinib -0.013 | [1] -0.051 | [2] -0.02 | [3] 0.03 | [4] 0.022 | [5] -0.018 | [6] 0.031 | [7] -0.011 | [8] -0.007 | IRAK-1-4 Inhibitor I 0.019 | ibrutinib 0.04 | [9] -0.001 | ralimetinib 0.012 | [10] 0.046 | [11] -0.011 | [12] -0.035 | [13] 0.027 | [14] 0.018 | [15] -0.028 | [16] -0.03

DDX41 (UniProt Q9UJV9)
inactive: erlotinib 0.022 | [1] -0.006 | [2] 0.03 | [3] -0.009 | [4] 0.006 | [5] 0.006 | [6] -0.04 | [7] -0.031 | [8] 0.045 | IRAK-1-4 Inhibitor I -0.079 | ibrutinib -0.033 | [9] 0.01 | ralimetinib 0.022 | [10] 0.018 | [11] 0.029 | [12] 0.013 | [13] -0.049 | [14] 0.012 | [15] 0.01 | [16] 0.024

DCAF15 (UniProt Q66K64)
inactive: erlotinib 0.007 | [1] 0.071 | [2] 0.043 | [3] 0.028 | [4] -0.032 | [5] 0.009 | [6] -0.081 | [7] -0.04 | [8] 0.033 | IRAK-1-4 Inhibitor I 0 | ibrutinib 0.037 | [9] -0.021 | ralimetinib -0.045 | [10] -0.047 | [11] -0.089 | [12] 0.011 | [13] -0.148 | [14] -0.06 | [15] 0.014 | [16] 0.015

DDX47 (UniProt Q9H0S4)
inactive: erlotinib -0.025 | [1] -0.088 | [2] -0.049 | [3] -0.03 | [4] -0.028 | [5] 0.014 | [6] -0.004 | [7] 0 | [8] -0.011 | IRAK-1-4 Inhibitor I -0.008 | ibrutinib -0.002 | [9] -0.019 | ralimetinib 0.008 | [10] -0.029 | [11] 0.069 | [12] -0.005 | [13] -0.037 | [14] -0.021 | [15] 0 | [16] -0.002

DBT (UniProt P11182)
inactive: erlotinib 0.034 | [1] 0.019 | [2] 0.002 | [3] 0.013 | [4] -0.042 | [5] 0.016 | [6] 0.024 | [7] 0.015 | [8] -0.018 | IRAK-1-4 Inhibitor I 0.013 | ibrutinib 0.029 | [9] -0.002 | ralimetinib -0.016 | [10] -0.018 | [11] -0.014 | [12] -0.022 | [13] 0.004 | [14] 0.032 | [15] -0.009 | [16] 0.001

DDX18 (UniProt Q9NVP1)
inactive: erlotinib -0.015 | [1] -0.033 | [2] -0.031 | [3] 0.005 | [4] -0.029 | [5] 0.025 | [6] 0.007 | [7] 0.004 | [8] -0.014 | IRAK-1-4 Inhibitor I -0.052 | ibrutinib -0.018 | [9] -0.006 | ralimetinib -0.003 | [10] 0.012 | [11] -0.017 | [12] 0.013 | [13] -0.002 | [14] -0.032 | [15] 0.004 | [16] 0.001

Fetched one by one from the entries so far, two records:
DDB2 (UniProt Q92466)
inactive: erlotinib -0.007 | [1] -0.028 | [2] 0.07 | [3] 0.052 | [4] 0.064 | [5] -0.024 | [6] 0 | [7] -0.075 | [8] -0.041 | IRAK-1-4 Inhibitor I 0.026 | ibrutinib 0.075 | [9] -0.016 | ralimetinib 0.009 | [10] -0.033 | [11] -0.007 | [12] 0.091 | [13] -0.003 | [14] 0.009 | [15] 0 | [16] 0.01

DCUN1D4 isoform 3 (UniProt Q92564)
inactive: erlotinib -0.025 | [1] -0.118 | [2] 0.068 | [3] -0.127 | [4] -0.063 | [5] -0.026 | [6] -0.053 | [7] -0.09 | [8] -0.113 | IRAK-1-4 Inhibitor I 0.005 | ibrutinib 0.064 | [9] 0.078 | ralimetinib -0.033 | [10] -0.057 | [11] 0.018 | [12] -0.009 | [13] -0.078 | [14] -0.027 | [15] 0.029 | [16] -0.059

(cont.)

DARS2 (UniProt Q6PI48)
inactive: erlotinib 0.043 | [1] -0.078 | [2] 0.016 | [3] 0.045 | [4] 0.049 | [5] -0.042 | [6] -0.039 | [7] -0.06 | [8] 0.01 | IRAK-1-4 Inhibitor I 0.024 | ibrutinib 0.003 | [9] -0.006 | ralimetinib 0.048 | [10] 0.024 | [11] 0.014 | [12] -0.008 | [13] -0.03 | [14] -0.035 | [15] 0.035 | [16] -0.002

DES (UniProt P17661)
inactive: erlotinib 0.014 | [1] 0.012 | [2] 0.023 | [3] -0.074 | [4] -0.016 | [5] -0.026 | [6] -0.018 | [7] 0.048 | [8] 0.1 | IRAK-1-4 Inhibitor I 0.09 | ibrutinib 0.044 | [9] 0 | ralimetinib 0.025 | [10] -0.16 | [11] -0.01 | [12] -0.026 | [13] -0.045 | [14] 0.057 | [15] -0.017 | [16] -0.057

Source: the supplement of paper PMC10849652
